Measurements published in paper PMC6085760.
Results are given in words; binding and its absence hold for the method and conditions named. Some entries that bind do so weakly or less than the wild type.

The chains behind the UniProt entries cited, without tags or fusion partners. Residues count along the entry.
UniProt P05067, residues 672-713: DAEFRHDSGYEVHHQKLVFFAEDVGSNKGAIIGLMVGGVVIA
UniProt P02769, residues 25-607: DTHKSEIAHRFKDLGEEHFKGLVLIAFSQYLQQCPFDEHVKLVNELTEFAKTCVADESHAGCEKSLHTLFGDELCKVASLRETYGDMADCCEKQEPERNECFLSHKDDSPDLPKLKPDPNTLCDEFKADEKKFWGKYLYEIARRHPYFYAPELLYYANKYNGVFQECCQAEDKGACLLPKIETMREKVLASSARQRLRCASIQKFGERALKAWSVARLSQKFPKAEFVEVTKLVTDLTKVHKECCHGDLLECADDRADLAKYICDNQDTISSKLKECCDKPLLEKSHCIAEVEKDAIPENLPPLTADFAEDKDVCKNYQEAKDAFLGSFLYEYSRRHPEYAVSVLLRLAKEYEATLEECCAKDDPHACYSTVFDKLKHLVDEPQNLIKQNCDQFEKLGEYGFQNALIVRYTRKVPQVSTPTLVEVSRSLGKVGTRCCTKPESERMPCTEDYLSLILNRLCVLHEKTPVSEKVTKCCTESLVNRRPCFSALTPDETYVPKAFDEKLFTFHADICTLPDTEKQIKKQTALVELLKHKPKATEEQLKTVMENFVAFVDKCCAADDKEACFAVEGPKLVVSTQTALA

Assays:
[1] = biological target: Aβ1-42 fibrils grown in vitro (UniProt P05067); assay: scanning transmission electron microscopy (STEM); Aβ fibrils grown in vitro incubated 30 min with fND solution (0.5 nM) under constant stirring; grids washed, negative staining with 1% phosphotungstic acid; both purified
[2] = biological target: Bovine serum albumin (BSA) fibrils (bovine) (UniProt P02769); assay: condition: 30 µM for the protein and 0.5 nM for the fND; scanning transmission electron microscopy (STEM); BSA fibrils (30 µM protein) mixed with fND (0.5 nM), 30 min; grids washed, negative staining with 1% phosphotungstic acid; both purified

With RRRRRRRCLPFFD (C-terminal amide) [R7-CLPFFD peptide on the surface of nanodiamonds (functionalized nanodiamonds, fNDs)] the binding [1] was “binds” and the binding [2] was “no binding”.
